## Assay results

Data taken from PubChem BioAssay AID1159506, deposited by NCATS (2015).

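Genome-wide siRNA knockdown in TC32 Ewing sarcoma cells, comparing luciferase light from an NR0B1-promoter reporter with a CMV-promoter reporter 48 hours after transfection. Each siRNA was applied at 20 nM. A z-score of the log NR0B1-over-CMV signal, less the median of siRNAs with the same seed; more negative means a stronger specific loss of the NR0B1 reporter.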

The strongest results of the screen are mostly left out here. Sequences are the guide (antisense) strand, without overhang.

siRNA	target gene	seed-corrected z-score
AUAUAUUCCAGAGUACUGC	SLC25A24	-1.099
UAAUAGUCACCCUCCAGGU	JAG2	0.6413
UUGAUAUCAAUACAGUUGC	FBLN1	0.5092
UGUUGUGCAAAUCCAGCAC	LRRC55	0.1556
UCCACGGUCAGGAUGAUCU	GUCY2D	-0.04547
UAGGUUCACAAUCAUAAGG	C10orf76	-0.01587
UCUGCGGGAAGUACACGUC	SYNGR1	0.1522
UAAACUUGGUAUCUCUUGC	LOC645680	1.047
UAUGGAUUUCGAAAUAAAC	INSIG1	1.179
UUCACACUCAUGCCGAACC	ZSCAN26	-1.203
UUCUCCAAAGGUGAAAGCC	LAG3	1.14
UCAGGACAAAUCAGGGUGG	RPL23AP82	-0.3856
UUCCAGUCAAUAGUACACC	NAP1L4	0.03831
UGGAAUUUGAUCUCUAUUC	CD163	-0.663
UUACUUCUUCGGCAGACUG	CDK11B	-0.0455
UUCGGGCUGAGAUUUAGUG	CT47A11	0.4903
AUAUCAGUCGGUCAAAUCC	SNRNP40	0.7092
UGCUUCUUCACCGCUAAGC	STK33	-0.5689
UGAUGAUCUUCUUAUUUGU	AHSA2	-0.7124
UCUUGUCCAAUAUCCGUGU	LOC727925	-0.8245
UUCGAUGCGAGCCUGUAGC	EVPL	-1.085
UAUGGGACUGCAUAUUAGC	SLC25A53	-0.426
AAAGUGUGAGUGUCAAGCG	HOXA9	1.389
UGCAUAUCCAACAAUCAUC	CYB5R4	-1.889
ACUGUUUGCAGUGAGGUUG	TMCO6	-0.6224
UUUCUUUUCGUCUUGUCGG	OTUD6A	-0.01084
UGUACUAUAAAAGGAAAUG	NXPH1	-0.09184
UUUCUGGUCAUGAUAGGUU	SUDS3	0.01345
UCCACAAUAUGUUACGUGG	UHMK1	-0.05405
UUACUUCUACUUUGGAGUC	EIF4EBP2	-0.2065
UGACUGUCUUCACUUUCCC	MBD3L1	0.2333
UGCUCUAGCAUCUUGUUGG	CBFA2T2	0.3074
AAAGGGUCGUCAUUGAUUU	ANKRD65	-1.402
UAGUCAUUCACAAUAUUCC	C1QTNF5	0.2604
UUUCUCCUAACCUUAAUCU	DAP	0.4622
UUCUUUUCAGGAAUGACAG	STAMBP	0.3738
UUAUUGAUAAGCAUUAGUG	POLD4	0.0603
UCAAGAAUUGUAACUAGCC	XRCC2	-0.003987
UCCAUCACCAGUAGUAACG	SPG11	-1.155
UUUGUUCUCUGCCGGUCCG	PLA2G10	-0.9533
AUAGAUGCUGAUACGAUGC	BRPF3	-0.1437
AAAUAGAUUACUGCAUAGG	CDC14A	-0.4073
UACGUGUUAACAUGGUGUC	ZMYM4	0.5699
UCUCAUAGAUGGUCAAUGC	IFNB1	-0.4134
UACCUGUAUAUGGAGUACC	GART	0.2543
UAUUAUUGUCUUGAAUUCG	TMCO2	0.5117
ACCAUGACCACAGUGUUGC	ALDH16A1	-0.8072
UAAGGUACCAGCUCCGCUU	POMGNT1	0.2578
UUACCGAAGAUUUUAGCAC	PCDHB12	0.6885
UGAUCUAUUUGGUGAGUCC	ZNF818P	-0.5087
UGGAGUACCAUCUACAACC	ADAMTS1	0.1768
UGAAUUUCCACUCACCUAC	DRD2	-1.617
AAAGUGAUCCCAUACAGGG	SCD	0.05227
AUGGUUAAUGUCAAAAUUC	VPS50	-0.1184
UGCGGAACAAAUGGUCAGG	HLA-DOA	-0.0003128
CUUACAGCAAUUGCACUGG	KRTAP5-10	0.4795
UCUUCCUUGCAGUAGAUGC	LHX2	-0.1234
UUCCUACGUAUUCUGAUUC	PCDHA2	-0.1472
UACGGUCACUACAAUGAGC	OR4A47	-0.2984
UCUAUGUCAAAUGAGUAGG	ATP12A	-1.006
UGCGCGAAGAAGUUGUUGC	LRRC30	0.2504
UUUCACCUCAGGGAGUUUC	PRX	-0.2312
AGAGCACUAACAUCCUUGG	PNO1	1.379
UUCAGCAGAAGCGCUUGCC	TFF3	-1.782
UAUGUGAUUGUUGUAAAGC	AMIGO2	1.529
UACCAGUAGACAUGUCUCC	RPS10P29	0.4028
UGUCUGACAAGAGAGCAUC	EPG5	-0.7427
UGUUGAUCAAGUGGGUAGC	COL6A5	-0.7344
UUCAGUUGUACCACAUACU	CDK20	-0.2425
UCUGGACCAAGAUCUUGAC	RSRC1	0.7296
UUACAGAAACUCUGGAUUC	GRPEL2	1.669
AAGACAUUGAUAUAAAUCC	SLC17A3	-0.2831
UUAAUGUCAGAGGACAAGG	SLC38A6	-0.05787
AUAGUUUAAUCAUAGUGUC	EPM2A	-0.8355
UUACUAGCAAGCUAUAGCA	CD28	-0.4586
UUUGGUUCGUUGAAUUUUC	ACSM2B	0.08347

The first 6 entries again:

- AUAUAUUCCAGAGUACUGC against SLC25A24 : seed-corrected z-score -1.099
- UAAUAGUCACCCUCCAGGU against JAG2 : seed-corrected z-score 0.6413
- UUGAUAUCAAUACAGUUGC against FBLN1 : seed-corrected z-score 0.5092
- UGUUGUGCAAAUCCAGCAC against LRRC55 : seed-corrected z-score 0.1556
- UCCACGGUCAGGAUGAUCU against GUCY2D : seed-corrected z-score -0.04547
- UAGGUUCACAAUCAUAAGG against C10orf76 : seed-corrected z-score -0.01587